No constants are given. Whether binding was seen depends on the method and setting. Some results given as binding are weak or reduced against the parent protein; the word gives no strength. Where a sequence is shown, tags or fusion partners need not be part of it.
Molecular target: T1, TamA, histidine-tagged (pBADTamA-C-term-6xHis) (E. coli) (UniProt P0ADE4)
T1 sequence: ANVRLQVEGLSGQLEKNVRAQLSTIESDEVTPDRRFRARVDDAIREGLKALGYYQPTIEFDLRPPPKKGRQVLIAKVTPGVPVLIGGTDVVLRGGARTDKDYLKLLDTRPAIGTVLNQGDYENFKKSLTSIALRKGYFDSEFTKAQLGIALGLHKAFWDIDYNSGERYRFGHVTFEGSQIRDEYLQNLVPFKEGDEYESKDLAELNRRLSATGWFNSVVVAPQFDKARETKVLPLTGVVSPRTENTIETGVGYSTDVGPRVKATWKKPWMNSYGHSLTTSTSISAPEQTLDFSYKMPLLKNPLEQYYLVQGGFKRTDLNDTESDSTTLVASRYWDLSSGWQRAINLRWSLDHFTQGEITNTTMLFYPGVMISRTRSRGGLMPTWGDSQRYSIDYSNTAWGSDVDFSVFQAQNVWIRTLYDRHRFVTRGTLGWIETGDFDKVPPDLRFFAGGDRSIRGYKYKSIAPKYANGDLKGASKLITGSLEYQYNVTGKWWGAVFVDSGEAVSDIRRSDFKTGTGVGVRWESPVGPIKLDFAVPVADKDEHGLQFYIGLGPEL
Experiment: QCM-D; histidine-tagged TamA or deletion form attached to a Ni-ANTA gold surface, POPC membrane layer reconstituted around it; then 0.5 mL of 0.2 mg/ml TamB (step 3) and 0.5 mL of 0.2 mg/ml urea-denatured Ag43 (step 4) added one after the other, washes with 20 mM TRIS, 150 mM NaCl; 25 °C; both purified

binding: binds
B1: Ag43, urea-denatured (protein, UniProt P39180 53-1039)
chain: ADIVVHPGETVNGGTLANHDNQIVFGTTNGMTISTGLEYGPDNEANTGGQWVQDGGTANKTTVTSGGLQRVNPGGSVSDTVISAGGGQSLQGRAVNTTLNGGEQWMHEGAIATGTVINDKGWQVVKPGTVATDTVVNTGAEGGPDAENGDTGQFVRGDAVRTTINKNGRQIVRAEGTANTTVVYAGGDQTVHGHALDTTLNGGYQYVHNGGTASDTVVNSDGWQIVKNGGVAGNTTVNQKGRLQVDAGGTATNVTLKQGGALVTSTAATVTGINRLGAFSVVEGKADNVVLENGGRLDVLTGHTATNTRVDDGGTLDVRNGGTATTVSMGNGGVLLADSGAAVSGTRSDGKAFSIGGGQADALMLEKGSSFTLNAGDTATDTTVNGGLFTARGGTLAGTTTLNNGAILTLSGKTVNNDTLTIREGDALLQGGSLTGNGSVEKSGSGTLTVSNTTLTQKAVNLNEGTLTLNDSTVTTDVIAQRGTALKLTGSTVLNGAIDPTNVTLASGATWNIPDNATVQSVVDDLSHAGQIHFTSTRTGKFVPATLKVKNLNGQNGTISLRVRPDMAQNNADRLVIDGGRATGKTILNLVNAGNSASGLATSGKGIQVVEAINGATTEEGAFVQGNRLQAGAFNYSLNRDSDESWYLRSENAYRAEVPLYASMLTQAMDYDRIVAGSRSHQTGVNGENNSVRLSIQGGHLGHDNNGGIARGATPESSGSYGFVRLEGDLMRTEVAGMSVTAGVYGAAGHSSVDVKDDDGSRAGTVRDDAGSLGGYLNLVHTSSGLWADIVAQGTRHSMKASSDNNDFRARGWGWLGSLETGLPFSITDNLMLEPQLQYTWQGLSLDDGKDNAGYVKFGHGSAQHVRAGFRLGSHNDMTFGEGTSSRAPLRDSAKHSVSELPVNWWVQPSVIRTFSSRGDMRVGTSTAGSGMTFSPSQNGTSLDLQAGLEARVRENITLGVQAGYAHSVSGSSAEGYNGQATLNVTF
